Source: patent US20080199473A1 (CLEVELAND CLINIC FOUNDATION, published 2008)
Results are given in words; binding and its absence hold for the method and conditions named. Binding seen in cells or lysates may run through a third protein. Some results given as binding are weak or reduced against the parent protein; the word gives no strength.

By UniProt entry, the sequences of proteins in these tests, tags left out. Where a name states a change or a piece, a line headed by the entry shows the natural chain unless it says otherwise. Residues count along the entry.
UniProt O43508: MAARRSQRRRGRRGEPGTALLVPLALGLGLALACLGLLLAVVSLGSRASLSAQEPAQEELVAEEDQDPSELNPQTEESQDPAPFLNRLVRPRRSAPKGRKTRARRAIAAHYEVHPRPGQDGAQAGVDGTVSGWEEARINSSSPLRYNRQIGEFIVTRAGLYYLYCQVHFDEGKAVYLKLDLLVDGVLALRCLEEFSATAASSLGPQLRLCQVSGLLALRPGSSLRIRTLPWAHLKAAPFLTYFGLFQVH
GST-TWEAK protein: residues 136-249 of O43508

What was measured:
GST-TWEAK protein [1] = target: GST-TWEAK protein (UniProt O43508); assay: GST pull-down
[2] = target: TWEAK (endogenous, in HVSMC protein extract) (UniProt O43508); assay: co-immunoprecipitation
GST-TWEAK protein [3] = target: GST-TWEAK protein (UniProt O43508); assay: GST pull-down, 35S-labelled VG5Q
[4] = target: TWEAK (endogenous, in HVSMC protein extract) (UniProt O43508); assay: co-immunoprecipitation, Western blot
[5] = target: TWEAK (endogenous, in HVSMC protein extract) (UniProt O43508); assay: co-immunoprecipitation from HVSMC extract, Western blot with goat anti-TWEAK

Measured: binding

B1: human VG5Q protein (protein)
chain: MASEAPSPPRSPPPPTSPEPELAQLRRKVEKLERELRSCKRQVREIEKLLHHTERLYQNAESNNQELRTQVEELSKILQRGRNEDNKKSDVEVQTENHAPWSISDYFYQTYYNDVSLPNKVTELSDQQDQAIETSILNSKDHLQVENDAYPGTDRTENVKYRQVDHFASNSQEPASALATEDTSLEGSSLAESLRAAAEAAVSQTGFSYDENTGLYFDHSTGFYYDSENQLYYDPSTGIYYYCDVESGRYQFHSRVDLQPYPTSSTKQSKDKKLKKKRKDPDSSATNEEKDLNSEDQKAFSVEHTSCNEEENFANMKKKAKIGIHHKNSPPKVTVPTSGNTIESPLHENISNSTSFKDEKIMETDSEPEEGEITDSQTEDSYDEAITSEGNVTAEDSEDEDEDKIWPPCIRVIVIRSPVLQIGSLFIITAVNPATIGREKDMEHTLRIPEVGVSKFHAEIYFDHDLQSYVLVDQGSQNGTIVNGKQILQPKTKCDPYVLEHGDEVKIGETVLSFHIHPGSDTCDGCEPGQVRAHLRLDKKDESFVGPTLSKEEKELERRKELKKIRVKYGLQNTEYEDEKTLKNPKYKDRAGKRREQVGSEGTFQRDDAPASVHSEITDSNKGRKMLEKMGWKKGEGLGKDGGGMKTPIQLQLRRTHAGLGTGKPSSFEDVHLLQNKNKKNWDKARERFTENFPETKPQKDDPGTMPWVKGTLE
modifications: 35S label in the GST pull-down (in-vitro-translated)
binds: all assays above
